# Source: PubChem BioAssay AID2685 (National Center for Advancing Translational Sciences (NCATS), 2010)
# This is one part of the list. The main result of the screen is listed elsewhere. These columns were measured beside it and carry no call. The list favours compounds with an active or inconclusive main result. Words in brackets tell the shape of the fitted curve; partial curves, single points and poor fits give uncertain potencies.
# Assay: qHTS Assay for Lipid Storage Modulators in Drosophila S3 Cells;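 on cell number change: cells counted by Cell Tracker Red CMTPX staining in the red channel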
# Conditions: BODIPY lipid droplet fluorescence, 18-24 h; for cell number change: measured here: cell count max response, cells fed with added oleic acid
# How it was run: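 Laser-scanning cytometry quantifies lipid droplet accumulation (500–530 nm total intensity; droplet/cell object ratio) in oleic acid-fed (400 uM added) Drosophila S3 cells treated with a concentration series. 20 uM Triacsin C defined 100% inhibition.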
# [1] = measured here: cell number channel AC50, cells fed with added oleic acid
# [2] = measured here: lipid fluorescence (Fed channel) AC50, cells fed with added oleic acid
SMILES,cell number change,AC50 [1],AC50 [2]
CCn1c(C)c(C(C)=O)c(N2CCCCC2)nc1=S,-34.3%,"0.651 µM [falling, full curve]","0.731 µM [falling, full curve]"
CN1CCN(S(=O)(=O)c2cccc(C(=O)Nc3cccc(S(N)(=O)=O)c3)c2)CC1,21%,"0.13 µM [rising, full curve, poor fit]",
NNC(=O)c1cc2cc(Oc3ccccc3)ccc2[nH]1,16.7%,,"18.4 µM [falling, single point]"
Nc1ccc(-c2sc(N)nc2-c2ccccc2)cc1,-5.46%,,"0.731 µM [rising, single point]"
COc1ccccc1N(C)S(=O)(=O)c1ccc(C(=O)Nc2ccncc2)cc1,6.05%,"1.64 µM [rising, partial curve]","1.84 µM [rising, partial curve]"
Cc1nn(C)cc1CNC(=O)c1cccc(Cl)c1,47.5%,"18.4 µM [rising, single point]",
CCN(CC)CCNc1nc2c(c(=O)[nH]c(=O)n2C)n1CCCc1ccccc1,-17.7%,,
CC1CCN(c2ccc3nnc(CCC(=O)Nc4ccc(F)c(F)c4)n3n2)CC1,14.1%,,
O=C(NC(=S)Nc1ccc(N2CCOCC2)cc1)c1ccccc1,-22.8%,,"3.26 µM [falling, single point]"
CC(=O)Nc1ccc(NC(=O)CSc2nc(C)nc3sc(C)c(C)c23)cc1,-39.1%,"32.6 µM [falling, single point]","2.31 µM [rising, partial curve, poor fit]"
CCC(C)[C@H](NC(=O)NC1CCCc2ccccc21)C(=O)O (stereo partly specified),-35.4%,"25.9 µM [falling, single point]","0.00461 µM [falling, full curve, poor fit]"
CCN(CC(=O)NCc1ccc(F)cc1)C(=O)Cc1ccc(OC)cc1,37.8%,"0.651 µM [rising, partial curve]",
Cc1ccc(C(C)C)c(OCC(=O)OCC(=O)NC2CCS(=O)(=O)C2)c1 (stereo unspecified),-4%,,
COc1ccc(Nc2nc(C)cc(C)n2)cc1Cl,23%,,
O=C(NNC(=O)C1CCCO1)c1ccc(Cl)cc1 (stereo unspecified),,"0.0651 µM [rising, full curve, poor fit]",
O=C(CCl)Nc1c[nH]c(=O)[nH]c1=O,21.5%,,
CCOC(=O)/C(O)=C(\C#N)c1nc2ccccc2[nH]1,55.1%,,"0.00411 µM [rising, full curve, poor fit]"
COc1cc(/C=C/C(=O)O)cc(S(=O)(=O)Nc2ccccc2C(=O)NCCc2ccccc2)c1OC,,,"12.6 µM [rising, single point]"
O=C(COC(=O)c1ccccc1Cl)NCCC1=CCCCC1,-34.1%,,"0.116 µM [falling, full curve]"
CCOCCCn1c(=S)[nH]c2cc(C(=O)NCCc3ccc(OC)c(OC)c3)ccc2c1=O,8.75%,,"1.3 µM [falling, full curve]"

# A draw from above in order of length of the SMILES, ascending:
SMILES,cell number change,AC50 [1],AC50 [2]
COc1ccc(Nc2nc(C)cc(C)n2)cc1Cl,23%,,
CCn1c(C)c(C(C)=O)c(N2CCCCC2)nc1=S,-34.3%,"0.651 µM [falling, full curve]","0.731 µM [falling, full curve]"
CCC(C)[C@H](NC(=O)NC1CCCc2ccccc21)C(=O)O (stereo partly specified),-35.4%,"25.9 µM [falling, single point]","0.00461 µM [falling, full curve, poor fit]"
Cc1ccc(C(C)C)c(OCC(=O)OCC(=O)NC2CCS(=O)(=O)C2)c1 (stereo unspecified),-4%,,

# More entries.

SMILES,cell number change,AC50 [1],AC50 [2]
CC(C)N1CCN(C(=O)c2ccc(NC(=O)c3ccc(Br)o3)cc2)CC1,19.4%,,"16.4 µM [rising, single point]"
Cc1cc(NC(=O)CSCC(=O)N2CCN(c3cccc(C)c3C)CC2)no1,-42.9%,"29.1 µM [falling, single point]","29.1 µM [falling, single point]"
Cc1cc(F)ccc1S(=O)(=O)Nc1c(C)n(C)n(-c2ccccc2)c1=O,,,"23.1 µM [rising, partial curve, poor fit]"
Cc1ccc(NC(=O)Nc2ccc([N+](=O)[O-])cc2)nc1,16.9%,"6.51 µM [rising, single point]","3.26 µM [rising, partial curve]"
CCNC(=S)N/N=C/c1cc(Br)cc(Br)c1OC,29.7%,"0.291 µM [rising, full curve, poor fit]","1.84 µM [rising, full curve]"
COc1ccccc1NC(=O)c1ccccc1NC(=O)c1cccs1,9.24%,,
O=C(CN1CCN(S(=O)(=O)c2ccc(Br)cc2)CC1)N/N=C/c1ccccc1C(=O)O,-6.6%,"6.51 µM [falling, single point]",
COC(=O)c1sccc1NC(=O)Nc1ccc(C(C)=O)cc1,-20.2%,,"29.1 µM [falling, single point]"
CC1CCC(N(CCCN)Cc2ccco2)CC1C (stereo unspecified),-26.2%,,"0.291 µM [falling, full curve, poor fit]"
C/C(=N\NC(=O)CNc1cccc(C(F)(F)F)c1)c1ccc(Br)cc1,-56.9%,"8.2 µM [falling, partial curve]","9.2 µM [falling, partial curve]"
CS(=O)(=O)N(CC(=O)N1CCCC1)c1ccc(Cl)cc1Cl,19.1%,,
CCCCCCCCCCCCCCCC[n+]1ccc(/C=N/O)cc1,-78.5%,"20.6 µM [falling, partial curve]","1.3 µM [falling, full curve]"
Cc1nnc(NC(=O)c2ccc(-c3cccc(C(F)(F)F)c3)o2)s1,-8.25%,,"4.11 µM [rising, partial curve, poor fit]"
CC1(C)C2CCC1(CS(=O)(=O)N1CCOCC1)C(=O)C2 (stereo unspecified),-6.47%,,"0.116 µM [falling, full curve, poor fit]"
COc1ccc(/C=C2/Sc3ccc(C(=O)N4CCOCC4)cc3NC2=O)cc1OC,-9.06%,"0.116 µM [rising, full curve, poor fit]",
CC(C)CC(=O)NC(=S)Nc1cccc(NC(=O)c2ccccc2Cl)c1,31.5%,"3.26 µM [rising, full curve, poor fit]","1.64 µM [rising, partial curve]"
Fc1ccc2cnc(-c3ccccc3)c(-c3cccc(C(F)(F)F)c3)c2c1,-58.9%,"25.9 µM [falling, single point]",
O=C(N/N=C/c1ccc([N+](=O)[O-])o1)c1ccccc1-n1cccc1,10.9%,,"20.6 µM [falling, partial curve]"
COc1cccc(/C=N/NC(=O)c2[nH]nc3c2CCc2ccccc2-3)c1O,-69.6%,"29.1 µM [falling, single point]",
COC(=O)C(Cc1ccc(O)cc1)NC(=O)C12CC3CC(CC(C3)C1)C2 (stereo unspecified),-54.2%,,

SMILES,cell number change,AC50 [1],AC50 [2]
O=c1c2cc3c(=O)n(-c4ccccc4O)c(=O)c3cc2c(=O)n1-c1ccccc1O,-45.8%,"0.0259 µM [falling, full curve]","23.1 µM [falling, partial curve, poor fit]"
CCOc1cccc(-c2nc(C(N)=O)c3[nH]c(=O)n(-c4cccc(Cl)c4)c3n2)c1O,15.5%,,"7.31 µM [rising, partial curve, poor fit]"
COc1cc(/C=N/NC(=O)c2ccc(CSc3nc4ccccc4[nH]3)cc2)cc(OC)c1OC,-62.8%,"29.1 µM [falling, partial curve, poor fit]","29.1 µM [falling, partial curve, poor fit]"
CCCCOc1ccc(S(=O)(=O)Nc2cccnc2)cc1,-23.3%,,
Cc1cccc(NC(=O)c2ccc(S(=O)(=O)N3CC(C)OC(C)C3)cc2)n1 (stereo unspecified),19.1%,,"29.1 µM [rising, single point]"
O=C(O)CNC(=O)/C=C/c1c(Cl)cccc1Cl,-35.9%,"29.1 µM [falling, single point]","29.1 µM [falling, single point]"
Cc1ccc(CNC(=O)C2CCN(S(=O)(=O)N3CCCC3)CC2)cc1,,,"29.1 µM [rising, single point]"
O=C(O)CNC(=S)NCc1ccccc1,90.3%,,
COc1ccc(COn2c(=O)c(C)[n+]([O-])c3ccccc32)cc1OC,2.5%,,"0.259 µM [rising, full curve, poor fit]"
O=S(=O)(Nc1cc(Cl)ccc1-n1cncn1)c1cc(Br)ccc1Br,-44.5%,"8.2 µM [falling, partial curve]",
O=C(CN1C(=O)NC2(CCCC2)C1=O)Nc1ccc(S(=O)(=O)N2CCOCC2)cc1,37.6%,,
CC(C)Oc1ccc(NC(=O)CCC(=O)O)cc1,18.3%,"0.092 µM [rising, full curve, poor fit]",
C=CCn1c(O)c(C2=c3ccccc3=NC2=O)c2ccccc21,-79.8%,"25.9 µM [falling, partial curve]","1.84 µM [falling, partial curve, poor fit]"
CCN(CC)CCn1c2c(c(SCC(=O)Nc3cc(C)on3)nc1=O)CCCC2,75%,"6.51 µM [falling, single point]",
COc1ccc(OC)c(S(=O)(=O)N2CCCC(C(=O)NCCN3CCOCC3)C2)c1 (stereo unspecified),-0.855%,,"0.0058 µM [falling, full curve, poor fit]"
CN(C)/C=C(/C(=O)c1ccc(Cl)cc1Cl)S(=O)(=O)c1ccc(Cl)cc1,-30.2%,"1.64 µM [falling, full curve, poor fit]","1.46 µM [falling, partial curve]"
O=C(Nc1ccc(N2CCN(C(=O)c3ccco3)CC2)cc1)c1ccccc1F,2.38%,,"0.0651 µM [rising, partial curve, poor fit]"
O=C(c1ccc2c3c(cccc13)CC2)C1CCCN(C(=O)c2ccc(=O)[nH]c2)C1 (stereo unspecified),-6.74%,,"0.0116 µM [rising, full curve, poor fit]"
